Data as given in article PMC8986318.

Amino acid sequences for entries named in this document (tags omitted). A change or cut given only in a name is not applied to a line headed by its entry. Residues count along the entry.
UniProt P31431, residues 19-198: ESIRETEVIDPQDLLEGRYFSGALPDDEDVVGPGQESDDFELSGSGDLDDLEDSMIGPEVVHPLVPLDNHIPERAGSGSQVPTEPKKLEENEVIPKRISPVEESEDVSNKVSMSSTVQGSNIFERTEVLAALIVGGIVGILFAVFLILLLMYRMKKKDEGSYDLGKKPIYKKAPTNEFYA
UniProt P09038: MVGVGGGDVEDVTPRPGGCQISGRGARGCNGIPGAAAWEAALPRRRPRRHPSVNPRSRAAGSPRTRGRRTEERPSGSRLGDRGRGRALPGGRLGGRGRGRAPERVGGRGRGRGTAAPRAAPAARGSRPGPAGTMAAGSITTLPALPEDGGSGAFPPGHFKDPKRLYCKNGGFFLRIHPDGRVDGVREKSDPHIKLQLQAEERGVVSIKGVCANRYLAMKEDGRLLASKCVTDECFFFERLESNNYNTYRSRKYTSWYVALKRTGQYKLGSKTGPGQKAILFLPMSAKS

What was measured:
[1] = molecular target: T1, GPC1 overexpressed on HeLa S3 cells (UniProt P35052); assay: flow cytometry on cells; 2 x 10^5 detached HeLa S3 cells with 5 µg recombinant FGF2-GFP in 400 µl PBS, 1 hr at RT; GFP intensity normalised to wild-type cells; only the binder purified
T1 sequence (chain, GPI anchor; heparan sulfate chains): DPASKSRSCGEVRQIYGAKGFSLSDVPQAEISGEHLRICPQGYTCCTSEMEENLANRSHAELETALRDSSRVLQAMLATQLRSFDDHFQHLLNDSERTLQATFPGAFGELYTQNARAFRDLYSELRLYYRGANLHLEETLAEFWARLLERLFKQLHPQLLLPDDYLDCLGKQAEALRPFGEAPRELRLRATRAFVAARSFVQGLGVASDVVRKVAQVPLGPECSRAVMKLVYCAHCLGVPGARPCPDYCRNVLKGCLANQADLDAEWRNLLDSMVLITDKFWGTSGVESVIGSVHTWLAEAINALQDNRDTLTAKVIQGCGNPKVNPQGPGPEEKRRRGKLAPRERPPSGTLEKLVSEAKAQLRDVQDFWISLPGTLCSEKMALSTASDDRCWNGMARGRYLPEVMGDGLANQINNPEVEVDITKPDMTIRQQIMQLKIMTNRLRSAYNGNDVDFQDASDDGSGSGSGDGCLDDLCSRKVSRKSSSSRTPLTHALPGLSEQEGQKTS

[2] = molecular target: SDC4 overexpressed on HeLa S3 GPC1 knockout cells (UniProt P31431); assay: as above

binding [1]: binds
Substance: His-FGF2-GFP (recombinant FGF2-GFP) (from UniProt P09038) (ligand)
binding [2]: no binding (tested: 5 µg FGF2-GFP in 400 µl)

Results are given in words; binding and its absence hold for the method and conditions named. For some assays here: Binding calls can cover weak binding; strength is not graded here.
